Experimental findings from patent US8183048B2, “Assay for screening/ranking antioxidants based on their effects on membrane sterol lateral organization” (Temple University- Of the Commonwealth System of Higher …, priority 2007, dated 2012) are described below.

“Also recorded” adds a separate entry of the source.

The series in a line: Steady-state anisotropy of DHE fluorescence vs antioxidant dose. In kind it is physicochemical. As to conditions: DMPC/DHE LUVs, 21.0 mol % DHE, 37° C., FIG. 7. Here is the method: Steady-state anisotropy measurements were made at 37° C. on an ISS K2 fluorometer (ISS, Champaign, Ill.). Excitation wavelength used was 325 nm, with a bandwidth of 8 nm. Emission was measured through a KV-408 filter with λex=399 nm. Blank readings from membranes without probes were subtracted from the sample readings. Steady-state anisotropy (r) gives information about membrane packing in the vicinity of the probe molecule. […] DMPC/DHE LUVs (21.0 mol % DHE) were incubated with increasing doses of either ascorbic acid or ascorbyl palmitate, and steady-state anisotropy measurements were recorded (FIG. 7). The addition of water-soluble ascorbic acid had no effect on the anisotropy value, even at high doses. […] Assuming that the fluorescence lifetime of DHE is invariant with antioxidant dose, the anisotropy data (FIG. 7) indicate a decrease in membrane free volume as more ascorbyl palmitate molecules partition into the bilayer. The insertion of the palmitate chain also changes membrane composition, thus altering the actual sterol mole percentage in the membrane and perturbing the dynamic equilibrium of membrane lateral organization. As [ascorbyl palmitate] increases, the lipid bilayer becomes increasingly perturbed, and membrane lateral organization is disrupted. Therefore, the biphasic change in lag phase at Cr is abolished or obliterated above Cth.

For `O=C1O[C@H]([C@@H](O)CO)C(O)=C1O` [ascorbic acid], the “effect of increasing antioxidant dose on steady-state anisotropy (r) of DHE fluorescence” value (from here on “effect of increasing antioxidant dose”) is “almost invariant; also recorded: no effect”. On to `CCCCCCCCCCCCCCCC(=O)OC[C@H](O)[C@H]1OC(=O)C(O)=C1O` [ascorbyl palmitate], for which the “effect of increasing antioxidant dose” value is on record as “significant increase”. The “effect of increasing antioxidant dose” value (listed as Ascorbyl palmitate) was “steady increase”.
